In patent US20090324725A1, “PEG-MODIFIED HYDROXYAPATITE, PHARMACEUTICAL USING THE SAME AS BASE MATERIAL AND PRODUCTION PROCESS THEREOF” (EBARA CORPORATION, priority 2008, published 2009):
For at least one compound, name, drawing or mass did not settle the structure.

Test: Elution test using the paddle method (candesartan)
Format: physicochemical

**Q.** With `CCOc1nc2cccc(C(=O)O)c2n1Cc1ccc(-c2ccccc2-c2nnn[nH]2)cc1` [candesartan pharmaceutical bulk drug, candesartan] as the compound, how does the “time required for elution of candesartan” value read?
**A.** about 1 hour
